{"source": "PubChem BioAssay AID330", "about": "(DTP/NCI, 2004)", "tested_on": "P388 leukemia ip, CD2F1 mice, survival T/C", "test": "NCI In Vivo Anticancer Drug Screen. Data for tumor model P388 Leukemia (intraperitoneal) in CD2F1 (CDF1) mice", "details": "T/C endpoint: median survival time, higher T/C = longer survival", "key": {"[1]": {"details": "dose: 12.5 mg/kg/injection, schedule: Q01DX009 (ip), vehicle: saline"}, "[2]": {"details": "dose: 25.0 mg/kg/injection, schedule: Q01DX009 (ip), vehicle: saline"}, "[3]": {"details": "dose: 30.0 mg/kg/injection, schedule: Q01DX005 (iv), vehicle: water"}, "[4]": {"details": "dose: 30.0 mg/kg/injection, schedule: Q01DX009 (ip), vehicle: water"}, "[5]": {"details": "dose: 50.0 mg/kg/injection, schedule: Q01DX009 (ip), vehicle: saline"}}, "note": "The list shows only some results of the screen, not a fair sample: it gathers tests that were run many times, whatever their T/C, doses with no T/C, and many T/C values between a quarter and a half above the control. Other doses and runs of a compound stand elsewhere. T/C: endpoint of the treated group in % of that of the vehicle group. Some doses have a count of surviving animals in place of a T/C: the source holds a T/C of zero for them, seemingly a mark for toxic or unscored doses. Some doses without a T/C left all or most animals alive at the check, yet need not have been tolerated: the source hardly ever lists a survival T/C far under the control, and the zero likely stands for such cases as well. Survivors were counted at the toxicity check, usually on the fifth day, unless a day is given; later deaths do not show. Schedules are NCI's codes, taken here to give the interval after Q, in days (D) or hours (H), and the number of doses after X. Some structures stand for samples that the source files as different forms (salt, stereo form or complex); doses refer to the form tested. Some doses were run more than once; their values stand side by side, smallest first. For survival time, the PubChem record calls one and a half times the control and up active, and a quarter to a half above the control has no call in these data; cut-offs in other NCI protocols can differ. Some T/C values are followed by the survivors on the day toxicity was checked, most often the fifth; without a count, all were alive then. Additions like (4×) count equal records among those shown."}
{"smiles": "ClCC[N+]12CC[N+](CCCl)(CC1)C2", "values": [{"measurement": "survivor count", "setting": "dose: 3.12 mg/kg/injection, schedule: Q01DX009 (ip), vehicle: water", "result": "6 of 6"}, {"measurement": "T/C", "setting": "dose: 6.25 mg/kg/injection, schedule: Q01DX009 (ip), vehicle: saline", "result": "128 % of control"}, {"measurement": "survivor count", "setting": "dose: 6.25 mg/kg/injection, schedule: Q01DX009 (ip), vehicle: water", "result": "1 of 6"}, {"measurement": "T/C", "setting": "dose: 12.5 mg/kg/injection, schedule: Q01DX009 (ip), vehicle: distilled water + Tween-80", "result": "108, 117, 127, 129 % of control"}, {"measurement": "T/C", "setting": "[1]", "result": "126 and 128 % of control (2×)"}, {"measurement": "survivor count", "setting": "[1]", "result": "5 of 6 and 6 of 6"}, {"measurement": "T/C", "setting": "dose: 12.5 mg/kg/injection, schedule: Q01DX009 (ip), vehicle: water, evaluated on day 30", "result": "95, 108 (2×), 109, 114 (2×), 126, 131, 132, 133 % of control"}, {"measurement": "T/C", "setting": "dose: 12.5 mg/kg/injection, schedule: Q01DX009 (ip), vehicle: water, evaluated on day 40", "result": "122 % of control"}, {"measurement": "survivor count", "setting": "dose: 12.5 mg/kg/injection, schedule: Q01DX009 (ip), vehicle: water", "result": "6 of 6"}, {"measurement": "T/C", "setting": "dose: 21.08 mg/kg/injection, schedule: Q01DX009 (ip), vehicle: clinical formulation", "result": "137 % of control"}, {"measurement": "T/C", "setting": "dose: 25.0 mg/kg/injection, schedule: Q01DX005 (ip), vehicle: water", "result": "125 % of control"}, {"measurement": "T/C", "setting": "dose: 25.0 mg/kg/injection, schedule: Q01DX009 (ip), vehicle: distilled water + Tween-80, evaluated on day 30", "result": "131, 141 (2×), 163 % of control"}, {"measurement": "T/C", "setting": "dose: 25.0 mg/kg/injection, schedule: Q01DX009 (ip), vehicle: distilled water + Tween-80, evaluated on day 40", "result": "147 % of control"}, {"measurement": "T/C", "setting": "dose: 25.0 mg/kg/injection, schedule: Q01DX009 (ip), vehicle: saline with Tween-80", "result": "131 and 136 % of control"}, {"measurement": "T/C", "setting": "[2]", "result": "164 and 238 % of control"}, {"measurement": "survivor count", "setting": "[2]", "result": "0 of 6 and 1 of 6"}, {"measurement": "T/C", "setting": "dose: 25.0 mg/kg/injection, schedule: Q01DX009 (ip), vehicle: water, evaluated on day 30", "result": "112, 114, 125, 128 [5 of 6 alive], 131, 132, 133, 138, 141 (2×), 147, 163 % of control"}, {"measurement": "T/C", "setting": "dose: 25.0 mg/kg/injection, schedule: Q01DX009 (ip), vehicle: water, evaluated on day 40", "result": "166 % of control"}, {"measurement": "survivor count", "setting": "dose: 25.0 mg/kg/injection, schedule: Q01DX009 (ip), vehicle: water", "result": "6 of 6"}, {"measurement": "T/C", "setting": "dose: 30.0 mg/kg/injection, schedule: Q01DX005 (ip), vehicle: water", "result": "133 % of control"}, {"measurement": "T/C", "setting": "[3]", "result": "129 % of control"}, {"measurement": "survivor count", "setting": "[3]", "result": "10 of 10"}, {"measurement": "T/C", "setting": "[4]", "result": "134 % of control"}, {"measurement": "survivor count", "setting": "[4]", "result": "9 of 10"}, {"measurement": "T/C", "setting": "dose: 31.61 mg/kg/injection, schedule: Q01DX009 (ip), vehicle: clinical formulation", "result": "142 % of control"}, {"measurement": "T/C", "setting": "dose: 31.61 mg/kg/injection, schedule: Q01DX009 (ip), vehicle: water", "result": "142 % of control"}, {"measurement": "T/C", "setting": "dose: 44.0 mg/kg/injection, schedule: Q01DX009 (ip), vehicle: water", "result": "146 % of control"}, {"measurement": "T/C", "setting": "dose: 47.42 mg/kg/injection, schedule: Q01DX009 (ip), vehicle: clinical formulation", "result": "149 % of control"}, {"measurement": "T/C", "setting": "dose: 47.42 mg/kg/injection, schedule: Q01DX009 (ip), vehicle: water", "result": "134 % of control"}, {"measurement": "T/C", "setting": "dose: 50.0 mg/kg/injection, schedule: Q01DX005 (ip), vehicle: water", "result": "130 % of control"}, {"measurement": "T/C", "setting": "dose: 50.0 mg/kg/injection, schedule: Q01DX009 (ip), vehicle: distilled water + Tween-80", "result": "142, 155, 175, 194 % of control"}, {"measurement": "T/C", "setting": "dose: 50.0 mg/kg/injection, schedule: Q01DX009 (ip), vehicle: saline with Tween-80", "result": "140, 146, 147 % of control"}, {"measurement": "T/C", "setting": "[5]", "result": "117, 125, 186 % of control"}, {"measurement": "survivor count", "setting": "[5]", "result": "0 of 6"}, {"measurement": "T/C", "setting": "dose: 50.0 mg/kg/injection, schedule: Q01DX009 (ip), vehicle: water, evaluated on day 30", "result": "129, 135, 142, 144, 147, 150, 175, 178, 182, 187, 200 % of control"}, {"measurement": "T/C", "setting": "dose: 50.0 mg/kg/injection, schedule: Q01DX009 (ip), vehicle: water, evaluated on day 40", "result": "181 % of control"}, {"measurement": "survivor count", "setting": "dose: 50.0 mg/kg/injection, schedule: Q01DX009 (ip), vehicle: water", "result": "2 of 6"}, {"measurement": "T/C", "setting": "dose: 50.0 mg/kg/injection, schedule: Q04DX003 (ip), vehicle: saline with Tween-80", "result": "145 % of control"}, {"measurement": "T/C", "setting": "dose: 53.34 mg/kg/injection, schedule: Q01DX005 (iv), vehicle: clinical formulation", "result": "127 % of control"}, {"measurement": "T/C", "setting": "dose: 60.0 mg/kg/injection, schedule: Q01DX005 (iv), vehicle: water, evaluated on day 35", "result": "143 % of control [9 of 10 alive]"}, {"measurement": "T/C", "setting": "dose: 60.0 mg/kg/injection, schedule: Q01DX005 (iv), vehicle: water, evaluated on day 60", "result": "129 % of control"}, {"measurement": "survivor count", "setting": "dose: 60.0 mg/kg/injection, schedule: Q01DX005 (iv), vehicle: water", "result": "0 of 10"}, {"measurement": "T/C", "setting": "dose: 60.0 mg/kg/injection, schedule: Q01DX009 (ip), vehicle: clinical formulation", "result": "126 % of control"}, {"measurement": "survivor count", "setting": "dose: 60.0 mg/kg/injection, schedule: Q01DX009 (ip), vehicle: water", "result": "1 of 10"}, {"measurement": "T/C", "setting": "dose: 60.0 mg/kg/injection, schedule: Q01DX009 (oral), vehicle: water", "result": "125 % of control"}, {"measurement": "T/C", "setting": "dose: 80.0 mg/kg/injection, schedule: Q01DX005 (ip), vehicle: water", "result": "130 % of control"}, {"measurement": "T/C", "setting": "dose: 100.0 mg/kg/injection, schedule: Q01DX006 (ip), vehicle: water", "result": "146 % of control"}, {"measurement": "T/C", "setting": "dose: 100.0 mg/kg/injection, schedule: Q01DX009 (ip), vehicle: distilled water + Tween-80", "result": "155, 209, 212, 231 % of control"}, {"measurement": "survivor count", "setting": "dose: 100.0 mg/kg/injection, schedule: Q01DX009 (ip), vehicle: saline", "result": "0 of 6 and 6 of 6"}, {"measurement": "T/C", "setting": "dose: 100.0 mg/kg/injection, schedule: Q01DX009 (ip), vehicle: water, evaluated on day 30", "result": "120, 136, 148, 149, 169, 173, 177, 178 (2×), 184, 203, 209, 221 % of control"}, {"measurement": "T/C", "setting": "dose: 100.0 mg/kg/injection, schedule: Q01DX009 (ip), vehicle: water, evaluated on day 40", "result": "210 % of control"}, {"measurement": "survivor count", "setting": "dose: 100.0 mg/kg/injection, schedule: Q01DX009 (ip), vehicle: water", "result": "0 of 6 and 6 of 6"}]}
